Drawing on US12600746 (dated 2026), this text covers isolated mass, isolated yield and step yield for 27 substances.

Series [1] can be described thus: general procedure: Fmoc solid-phase peptide synthesis; Rink amide; PyBOP / NMM (resin loading). As to conditions: whole synthesis.
The nature of series [2]: general procedure: Fmoc solid-phase peptide synthesis; Rink amide resin; 2-chlorotrityl chloride resin; hydrazine-derivatized 2-chlorotrityl chloride resin; PyBOP / NMM (resin loading).
Series [3] is described as follows: general procedure: Fmoc solid-phase peptide synthesis; 2-CTC; PyBOP / NMM (resin loading). As to conditions: whole synthesis.
The nature of series [4]: general procedure: Fmoc solid-phase peptide synthesis; hydrazine-functionalized 2-CTC; PyBOP / NMM (resin loading). As to conditions: whole synthesis.
Series [5] is described as follows: general procedure: Fmoc solid-phase peptide synthesis; hydrazine-derived 2-CTC; PyBOP / NMM (resin loading). As to conditions: whole synthesis; for isolated yield: based on original resin loading.
Series [6] in a line: Fmoc solid-phase peptide synthesis; hydrazine-derived 2-CTC; PyBOP / NMM (resin loading). As to conditions: whole synthesis, scale 3×250 μmol.
A short description of series [7]: Fmoc solid-phase peptide synthesis; Rink amide; PyBOP / NMM (resin loading). The following applies: whole synthesis, scale 250 μmol.
Where [8] appears, read: scale of the general procedure 200 μmol.

Square brackets hold non-standard residues; d marks the D form. Pen = CC(C)(S)[C@H](N)C(=O)O

For (H-USPGYS-NH2)2, in series [1], the isolated mass is listed as 78 mg. This substance also showed an isolated yield in series [1] (setting [8]) of 61% yield.
As for Ac-(LYRANA)2CSPGYS-NH2, the step yield in series [2] (coupling step) is listed as 62% yield.
On the same count and under the same terms, to Ac-(LYRANV)2CSPGYS-NH2 belongs 58% yield.
In series [3] (scale 730 μmol), Ac-LYRANA-S(CH2)2CO2Et yielded an isolated mass of 288 mg and an isolated yield of 46%.
For Ac-LYRANA-SCH2CF3, in series [4] (scale 480 μmol), the isolated mass was 351 mg and the isolated yield is listed as 86%.
Ac-LYRANAASPGYS-NH2: the step yield result in series [2] (coupling step) was “isolated yield 66%”; in series [2] (coupling step, over two steps) it was 65%; in series [2] (coupling step, run 1), 69% yield; in series [2] (coupling step, run 2) it was 65% yield.
Regarding Ac-LYRANACSPGYS-NH2, the step yield is listed as 67% in series [2] (coupling step, run 1); 68% in series [2] (coupling step, run 2); “isolated yield 68%” in series [2] (coupling step, run 3); 67% yield in series [2] (coupling step, run 4).
On to Ac-LYRANF-SePh, for which the isolated mass in series [3] is given as 13.2 mg. The isolated yield in series [3] (setting [8]) stood at 37% yield.
In series [3] (scale 350 μmol), Ac-LYRANV-S(CH2)2CO2Et came in with an isolated mass of 128 mg and an isolated yield of 41%.
Take Ac-LYRANV-SCH2CF3: in series [4] (scale 640 μmol), the isolated mass amounted to 431 mg and the isolated yield is 77%.
For Ac-LYRANV-SePh, in series [3] (setting [8]), the isolated yield is 77% yield.
In the case of Ac-LYRANVASPGYS-NH2, the step yield entry in series [2] (coupling step) is recorded as “isolated yield 66%”; in series [2] (coupling step, over two steps), 63%; in series [2] (coupling step, run 1) it was 61% yield; in series [2] (coupling step, run 2), 63% yield.
For the substance Ac-LYRANVCSPGYS-NH2, the step yield in series [2] (coupling step) is reported as 65%; in series [2] (coupling step, run 1), 67% yield; in series [2] (coupling step, run 2), 65% yield.
In series [1] (scale 50 μmol), H-(β-SH) DSPGYS-NH2 had an isolated mass of 11.8 mg and an isolated yield of 36% yield.
H-ASPGYS-NH2 returned a step yield in series [2] (late stage modification step) of 82% yield.
Still for that read-out and setting: to H-ASPMYS-NH2 belongs 74% yield.
In series [1] (scale 730 μmol), H-CSPGYS-NH2 yielded an isolated mass of 257 mg and an isolated yield of 57%.
For the substance H-CSPMYS-NH2, in series [1] (scale 100 μmol), the isolated mass is 17.4 mg and the isolated yield was 22% yield.
H-DSPGYS-NH2 yielded a step yield in series [2] (late stage modification step) of 50% yield.
Same read-out and setting: to H-VSPGYS-NH2 belongs 83% yield.
In series [1] (scale 100 μmol), H-[Pen]SPGYS-NH2 registered an isolated mass of 18.1 mg and an isolated yield of 28% yield.
Consider enfuvirtide, for which, in series [2] (coupling step), the step yield was found to be 40%.
With enfuvirtide(1-18), in series [5] (scale 125 μmol), the isolated yield is 22% and the isolated mass was found to be 70 mg.
enfuvirtide(19-36) came in with an isolated yield in series [1] (based on original resin loading, scale 100 μmol) of 20%. For the same substance, the isolated mass in series [1] (scale 100 μmol) was found to be 51.6 mg.
On to somatorelin, for which the step yield in series [2] (coupling step) was found to be 57%.
On to somatorelin(1-18), for which, in series [6], the isolated mass amounted to 272.0 mg. In series [5] (scale 3×250 μmol), this substance had an isolated yield of 14.6%.
On to somatorelin(19-44), for which the isolated mass in series [7] came to 234.0 mg. Moreover, the isolated yield in series [1] (based on original resin loading, scale 250 μmol) is listed as 24%.
